Measured values published in PMC10648221.
No constants are given. Whether binding was seen depends on the method and setting. Binding seen in cells or lysates may run through a third protein. Some results given as binding are weak or reduced against the parent protein; the word gives no strength.

Chains of the proteins cited; added tags and fusions are not shown. Residues count along the entry.
UniProt P18510, residues 26-177: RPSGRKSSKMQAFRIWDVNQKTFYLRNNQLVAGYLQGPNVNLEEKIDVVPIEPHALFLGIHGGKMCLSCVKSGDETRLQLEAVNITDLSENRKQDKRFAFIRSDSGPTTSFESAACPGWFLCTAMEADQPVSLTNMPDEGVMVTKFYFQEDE
UniProt Q7Z494: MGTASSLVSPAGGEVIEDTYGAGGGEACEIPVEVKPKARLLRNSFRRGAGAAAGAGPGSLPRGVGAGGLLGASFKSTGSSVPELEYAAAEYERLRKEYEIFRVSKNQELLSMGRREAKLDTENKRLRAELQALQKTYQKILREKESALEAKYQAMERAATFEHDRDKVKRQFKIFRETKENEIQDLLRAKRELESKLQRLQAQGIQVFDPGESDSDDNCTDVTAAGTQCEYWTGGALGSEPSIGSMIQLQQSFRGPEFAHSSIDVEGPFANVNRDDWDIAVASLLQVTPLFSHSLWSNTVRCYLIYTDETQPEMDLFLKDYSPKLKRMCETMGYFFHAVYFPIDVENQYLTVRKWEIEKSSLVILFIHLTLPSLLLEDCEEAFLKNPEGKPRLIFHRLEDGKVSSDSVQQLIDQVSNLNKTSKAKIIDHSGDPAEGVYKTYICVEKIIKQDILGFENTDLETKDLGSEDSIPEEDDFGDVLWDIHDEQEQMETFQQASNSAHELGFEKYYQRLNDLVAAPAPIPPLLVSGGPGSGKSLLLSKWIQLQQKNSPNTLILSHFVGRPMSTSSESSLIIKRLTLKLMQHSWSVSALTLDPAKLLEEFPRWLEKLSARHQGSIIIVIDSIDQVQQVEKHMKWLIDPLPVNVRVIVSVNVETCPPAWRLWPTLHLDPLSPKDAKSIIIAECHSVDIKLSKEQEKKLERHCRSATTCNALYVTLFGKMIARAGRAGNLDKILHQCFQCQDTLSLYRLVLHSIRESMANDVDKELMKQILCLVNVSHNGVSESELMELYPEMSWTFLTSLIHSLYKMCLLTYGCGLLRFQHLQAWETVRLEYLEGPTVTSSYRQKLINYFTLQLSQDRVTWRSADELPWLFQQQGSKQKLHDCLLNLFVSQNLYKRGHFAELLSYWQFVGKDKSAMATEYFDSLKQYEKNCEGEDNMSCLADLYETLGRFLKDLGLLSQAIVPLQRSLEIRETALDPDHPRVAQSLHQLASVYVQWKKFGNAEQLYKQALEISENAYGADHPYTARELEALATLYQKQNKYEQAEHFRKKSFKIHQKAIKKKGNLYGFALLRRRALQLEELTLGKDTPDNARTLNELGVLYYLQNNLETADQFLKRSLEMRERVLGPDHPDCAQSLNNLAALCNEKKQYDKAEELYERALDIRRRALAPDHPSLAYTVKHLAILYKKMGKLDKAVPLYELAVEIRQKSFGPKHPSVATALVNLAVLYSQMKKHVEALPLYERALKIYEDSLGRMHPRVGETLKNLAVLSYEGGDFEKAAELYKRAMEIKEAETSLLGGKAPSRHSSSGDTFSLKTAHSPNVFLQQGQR
UniProt P00441: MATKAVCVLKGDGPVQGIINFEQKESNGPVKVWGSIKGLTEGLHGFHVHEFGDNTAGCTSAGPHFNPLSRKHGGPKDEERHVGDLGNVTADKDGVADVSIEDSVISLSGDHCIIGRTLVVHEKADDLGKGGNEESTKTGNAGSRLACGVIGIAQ
UniProt Q9Y4B6: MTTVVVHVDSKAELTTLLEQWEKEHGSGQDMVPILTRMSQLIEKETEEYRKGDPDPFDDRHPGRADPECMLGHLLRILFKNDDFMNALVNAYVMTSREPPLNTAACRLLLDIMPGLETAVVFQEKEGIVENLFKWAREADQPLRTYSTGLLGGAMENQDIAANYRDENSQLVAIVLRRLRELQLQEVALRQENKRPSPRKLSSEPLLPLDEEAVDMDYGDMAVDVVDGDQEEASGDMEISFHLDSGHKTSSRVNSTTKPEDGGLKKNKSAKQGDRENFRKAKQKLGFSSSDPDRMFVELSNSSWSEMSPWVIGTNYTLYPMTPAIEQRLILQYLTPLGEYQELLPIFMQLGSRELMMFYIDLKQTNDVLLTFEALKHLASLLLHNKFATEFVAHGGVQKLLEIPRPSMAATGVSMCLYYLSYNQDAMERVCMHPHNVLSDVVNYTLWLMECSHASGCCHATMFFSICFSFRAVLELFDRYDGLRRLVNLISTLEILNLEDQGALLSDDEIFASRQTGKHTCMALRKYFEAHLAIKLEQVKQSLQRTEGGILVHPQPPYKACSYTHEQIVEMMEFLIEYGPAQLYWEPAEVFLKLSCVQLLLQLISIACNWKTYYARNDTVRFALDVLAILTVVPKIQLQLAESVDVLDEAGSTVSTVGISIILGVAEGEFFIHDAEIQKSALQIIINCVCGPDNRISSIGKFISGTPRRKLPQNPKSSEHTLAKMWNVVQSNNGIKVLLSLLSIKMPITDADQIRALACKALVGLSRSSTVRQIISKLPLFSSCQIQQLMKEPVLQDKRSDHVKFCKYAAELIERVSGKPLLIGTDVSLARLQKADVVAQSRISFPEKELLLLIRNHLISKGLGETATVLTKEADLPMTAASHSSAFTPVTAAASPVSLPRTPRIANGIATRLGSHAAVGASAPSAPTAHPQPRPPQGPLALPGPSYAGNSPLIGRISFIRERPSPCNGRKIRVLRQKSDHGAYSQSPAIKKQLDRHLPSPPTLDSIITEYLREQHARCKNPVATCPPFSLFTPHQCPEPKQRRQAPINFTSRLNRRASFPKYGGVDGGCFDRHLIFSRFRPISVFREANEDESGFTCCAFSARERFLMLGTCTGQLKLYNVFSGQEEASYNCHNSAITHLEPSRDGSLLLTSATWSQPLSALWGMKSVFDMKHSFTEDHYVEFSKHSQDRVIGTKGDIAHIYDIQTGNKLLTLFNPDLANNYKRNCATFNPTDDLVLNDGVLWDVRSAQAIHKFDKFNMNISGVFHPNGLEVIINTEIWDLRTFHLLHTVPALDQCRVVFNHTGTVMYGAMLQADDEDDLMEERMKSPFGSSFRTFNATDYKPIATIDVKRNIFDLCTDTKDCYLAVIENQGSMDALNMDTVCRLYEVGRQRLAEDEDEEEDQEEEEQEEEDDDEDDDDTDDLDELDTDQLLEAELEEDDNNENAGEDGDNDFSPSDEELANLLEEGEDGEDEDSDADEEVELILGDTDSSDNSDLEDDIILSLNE

T1: ARG1 (human (endogenous in KM12C, KM12SM, SW480, SW620)) (UniProt P05089)
T1 sequence: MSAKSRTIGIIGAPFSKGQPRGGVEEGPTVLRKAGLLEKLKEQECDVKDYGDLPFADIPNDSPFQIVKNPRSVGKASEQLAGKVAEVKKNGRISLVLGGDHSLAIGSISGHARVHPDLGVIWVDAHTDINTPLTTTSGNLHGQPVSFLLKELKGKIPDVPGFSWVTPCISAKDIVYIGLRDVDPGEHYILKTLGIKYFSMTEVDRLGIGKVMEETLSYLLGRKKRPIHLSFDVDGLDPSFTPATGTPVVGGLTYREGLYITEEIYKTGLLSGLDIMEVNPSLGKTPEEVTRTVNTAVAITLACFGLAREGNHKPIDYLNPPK

T2: SPRY domain-containing protein 7 (human) (UniProt Q5W111)
T2 sequence: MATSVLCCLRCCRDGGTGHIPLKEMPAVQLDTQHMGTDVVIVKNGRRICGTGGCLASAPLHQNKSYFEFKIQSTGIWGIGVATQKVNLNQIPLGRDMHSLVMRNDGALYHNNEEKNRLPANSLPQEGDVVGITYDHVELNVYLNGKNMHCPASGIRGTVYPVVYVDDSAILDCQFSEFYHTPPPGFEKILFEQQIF

B1: SPRY domain-containing protein 7 (protein, UniProt Q5W111 1-196)
chain: T2 sequence
B2: CAPNS2 (protein, UniProt Q96L46 1-248)
chain: MFLAKALLEGADRGLGEALGGLFGGGGQRREGGGRNIGGIVGGIVNFISEAAAAQYTPEPPPTQQHFTSVEASESEEVRRFRQQFTQLAGPDMEVGATDLMNILNKVLSKHKDLKTDGFSLDTCRSIVSVMDSDTTGKLGFEEFKYLWNNIKKWQCVYKQYDRDHSGSLGSSQLRGALQAAGFQLNEQLYQMIVRRYANEDGDMDFNNFISCLVRLDAMFRAFKSLDRDRDGLIQVSIKEWLQLTMYS
B3: A2ML1 (protein, UniProt A8K2U0 18-1454)
chain: EELPNYLVTLPARLNFPSVQKVCLDLSPGYSDVKFTVTLETKDKTQKLLEYSGLKKRHLHCISFLVPPPAGGTEEVATIRVSGVGNNISFEEKKKVLIQRQGNGTFVQTDKPLYTPGQQVYFRIVTMDSNFVPVNDKYSMVELQDPNSNRIAQWLEVVPEQGIVDLSFQLAPEAMLGTYTVAVAEGKTFGTFSVEEYVLPKFKVEVVEPKELSTVQESFLVKICCRYTYGKPMLGAVQVSVCQKANTYWYREVEREQLPDKCRNLSGQTDKTGCFSAPVDMATFDLIGYAYSHQINIVATVVEEGTGVEANATQNIYISPQMGSMTFEDTSNFYHPNFPFSGKIRVRGHDDSFLKNHLVFLVIYGTNGTFNQTLVTDNNGLAPFTLETSGWNGTDVSLEGKFQMEDLVYNPEQVPRYYQNAYLHLRPFYSTTRSFLGIHRLNGPLKCGQPQEVLVDYYIDPADASPDQEISFSYYLIGKGSLVMEGQKHLNSKKKGLKASFSLSLTFTSRLAPDPSLVIYAIFPSGGVVADKIQFSVEMCFDNQVSLGFSPSQQLPGAEVELQLQAAPGSLCALRAVDESVLLLRPDRELSNRSVYGMFPFWYGHYPYQVAEYDQCPVSGPWDFPQPLIDPMPQGHSSQRSIIWRPSFSEGTDLFSFFRDVGLKILSNAKIKKPVDCSHRSPEYSTAMGAGGGHPEAFESSTPLHQAEDSQVRQYFPETWLWDLFPIGNSGKEAVHVTVPDAITEWKAMSFCTSQSRGFGLSPTVGLTAFKPFFVDLTLPYSVVRGESFRLTATIFNYLKDCIRVQTDLAKSHEYQLESWADSQTSSCLCADDAKTHHWNITAVKLGHINFTISTKILDSNEPCGGQKGFVPQKGRSDTLIKPVLVKPEGVLVEKTHSSLLCPKGKVASESVSLELPVDIVPDSTKAYVTVLGDIMGTALQNLDGLVQMPSGCGEQNMVLFAPIIYVLQYLEKAGLLTEEIRSRAVGFLEIGYQKELMYKHSNGSYSAFGERDGNGNTWLTAFVTKCFGQAQKFIFIDPKNIQDALKWMAGNQLPSGCYANVGNLLHTAMKGGVDDEVSLTAYVTAALLEMGKDVDDPMVSQGLRCLKNSATSTTNLYTQALLAYIFSLAGEMDIRNILLKQLDQQAIISGESIYWSQKPTPSSNASPWSEPAAVDVELTAYALLAQLTKPSLTQKEIAKATSIVAWLAKQHNAYGGFSSTQDTVVALQALAKYATTAYMPSEEINLVVKSTENFQRTFNIQSVNRLVFQQDTLPNVPGMYTLEASGQGCVYVQTVLRYNILPPTNMKTFSLSVEIGKARCEQPTSPRSLTLTIHTSYVGSRSSSNMAIVEVKMLSGFSPMEGTNQLLLQQPLVKKVEFGTDTLNIYLDELIKNTQTYTFTISQSVLVTNLKPATIKVYDYYLPDEQATIQYSDPCE
B4: BLMH (protein, UniProt Q13867 1-455)
chain: MSSSGLNSEKVAALIQKLNSDPQFVLAQNVGTTHDLLDICLKRATVQRAQHVFQHAVPQEGKPITNQKSSGRCWIFSCLNVMRLPFMKKLNIEEFEFSQSYLFFWDKVERCYFFLSAFVDTAQRKEPEDGRLVQFLLMNPANDGGQWDMLVNIVEKYGVIPKKCFPESYTTEATRRMNDILNHKMREFCIRLRNLVHSGATKGEISATQDVMMEEIFRVVCICLGNPPETFTWEYRDKDKNYQKIGPITPLEFYREHVKPLFNMEDKICLVNDPRPQHKYNKLYTVEYLSNMVGGRKTLYNNQPIDFLKKMVAASIKDGEAVWFGCDVGKHFNSKLGLSDMNLYDHELVFGVSLKNMNKAERLTFGESLMTHAMTFTAVSEKDDQDGAFTKWRVENSWGEDHGHKGYLCMTDEWFSEYVYEVVVDRKHVPEEVLAVLEQEPIILPAWDPMGALAE
B5: ARG1 (protein, UniProt P05089 1-322)
chain: T1 sequence
B6: TYMP (protein, UniProt P19971 11-482)
chain: APPAPGDFSGEGSQGLPDPSPEPKQLPELIRMKRDGGRLSEADIRGFVAAVVNGSAQGAQIGAMLMAIRLRGMDLEETSVLTQALAQSGQQLEWPEAWRQQLVDKHSTGGVGDKVSLVLAPALAACGCKVPMISGRGLGHTGGTLDKLESIPGFNVIQSPEQMQVLLDQAGCCIVGQSEQLVPADGILYAARDVTATVDSLPLITASILSKKLVEGLSALVVDVKFGGAAVFPNQEQARELAKTLVGVGASLGLRVAAALTAMDKPLGRCVGHALEVEEALLCMDGAGPPDLRDLVTTLGGALLWLSGHAGTQAQGAARVAAALDDGSALGRFERMLAAQGVDPGLARALCSGSPAERRQLLPRAREQEELLAPADGTVELVRALPLALVLHELGAGRSRAGEPLRLGVGAELLVDVGQRLRRGTPWLRVHRDGPALSGPQSRALQEALVLSDRAPFAAPSPFAELVLPPQQ

Biological target: IL1RN (human (endogenous in KM12C, KM12SM, SW480, SW620)) (UniProt P18510)
Assay: co-IP; cross-validation: IP with antibodies specific to IL1RN or ARG1, Western blot with the anti-SPRYD7 antibody

binding | Molecule
binds | B1

Biological target: T1, ARG1 (human (endogenous in KM12C, KM12SM, SW480, SW620))
Assay: as above

binding | Molecule
binds | B1

Biological target: T2, SPRY domain-containing protein 7 (human)
Assay: co-IP; second IP with anti-SPRYD7 antibody from extracts of KM12C, KM12SM, SW480 and SW620 cells stably overexpressing SPRYD7; Western blot with antibodies against the candidate proteins

binding | Molecule
binds | NPHP3 (from UniProt Q7Z494 1-1330)
binds | SOD1 (from UniProt P00441 1-154)
binds | IL1RN (from UniProt P18510 26-177)
binds | VPRBP (from UniProt Q9Y4B6 1-1507)
binds | B2
binds | B3
binds | B4
binds | B5
binds | B6
